Reference: the supplement of paper PMC3334620
Whole data set: some 33,000 sequences, median “E-score (-0.5 to 0.5)” near -0.015, cut for the highest 2% near 0.3. This is one part of the list.

Molecular target: T1, Abf1 (UniProt P14164)
T1 sequence: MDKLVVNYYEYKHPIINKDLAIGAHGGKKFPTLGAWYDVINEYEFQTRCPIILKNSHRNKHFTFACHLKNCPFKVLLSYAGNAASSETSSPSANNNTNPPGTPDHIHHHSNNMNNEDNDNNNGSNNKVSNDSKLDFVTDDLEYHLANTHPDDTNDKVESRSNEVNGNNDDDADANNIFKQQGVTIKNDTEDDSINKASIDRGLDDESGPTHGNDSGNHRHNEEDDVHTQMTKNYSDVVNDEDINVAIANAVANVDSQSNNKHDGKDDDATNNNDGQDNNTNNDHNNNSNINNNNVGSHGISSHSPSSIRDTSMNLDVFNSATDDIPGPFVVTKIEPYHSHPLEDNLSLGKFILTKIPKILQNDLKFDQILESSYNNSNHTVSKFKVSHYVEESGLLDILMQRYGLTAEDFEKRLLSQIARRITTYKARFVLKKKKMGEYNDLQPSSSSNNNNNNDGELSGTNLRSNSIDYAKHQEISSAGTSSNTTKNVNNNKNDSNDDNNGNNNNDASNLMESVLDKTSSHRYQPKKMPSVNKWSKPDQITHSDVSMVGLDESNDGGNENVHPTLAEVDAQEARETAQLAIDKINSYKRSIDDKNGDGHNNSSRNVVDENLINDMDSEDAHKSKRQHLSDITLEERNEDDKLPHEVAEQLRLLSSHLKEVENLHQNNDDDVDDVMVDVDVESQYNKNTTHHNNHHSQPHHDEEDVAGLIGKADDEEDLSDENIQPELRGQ
Test: PBM E-score (8-mer binding enrichment) (E-score (-0.5 to 0.5)); higher = stronger / more preferred TF binding
Settings: protein concentration: 200 nM; construct: GST-full length
Summary of the method: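 Yeast transcription factors carrying a GST tag, as full-length proteins or DNA-binding domains, were produced by PURExpress in vitro transcription/translation. About 100-200 nM protein was applied to universal all-10-mer Agilent arrays, double-stranded by primer extension on fresh or once-stripped slides. Bound protein was detected with fluorescent anti-GST, and scans were normalised with masliner. The Universal PBM Analysis Suite gave each ungapped eight-base word, pooled with its reverse complement, an E-score, a modified Wilcoxon-Mann-Whitney statistic.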

Sequence	PBM E-score
CATAACGC	0.129
CATAGCGC	0.057
AGATATCA	0.3
TGGTATAA	0.0711
GAACTTCC	-0.12
CGTTTGAG	0.124
CCACACGA	0.0434
AAGCTCAG	-0.054
TAAGCTCA	0.0284
AAACGAAA	0.159
GATGTGAA	0.112
TAGGAACA	-0.116
AACGCGTT	0.201
GTTCCCCA	-0.043
AAACTTCC	-0.112
GATATACC	0.34
AGGAGGGC	-0.189
CTGGGAGC	-0.102
CCATTCCA	-0.243
CCATACCC	-0.264
CGGAGACA	0.143
CTGTGGGC	-0.0512

7 entries from above, comma-delimited.
Sequence,PBM E-score
AACGCGTT,0.201
GTTCCCCA,-0.043
AAACTTCC,-0.112
GATATACC,0.34
AGGAGGGC,-0.189
CTGGGAGC,-0.102
CCATTCCA,-0.243

Following part

Sequence	PBM E-score
GGCACCGA	-0.186
GCGAAATA	-0.0511
AAAACATC	0.0849
CAACAGAG	-0.177
AACGCGTC	0.0437
GAAGCAAC	-0.0375
CGCGGTGA	0.115
AATCGCGC	0.211
AAAATTCG	0.175
ACCCTTAT	-0.036
CCCCCGGA	-0.3
ATTTTTCA	0.246
AGAAGAGA	-0.156
AAGAAGTC	-0.0736
CATGCGCG	0.0124
ATCGATCC	-0.276
CTACGAGA	0.113
ATGCTTGG	-0.127
TAACCGCA	0.0879
CGATCAAA	0.0235
AGGAATTA	0.0193
CCTCCCCG	-0.241

Sequence	PBM E-score
CTTCTGTA	0.0547
CAGTTTCG	-0.0369
GGTCCGAC	-0.165
AATGGAGC	-0.149
GGGTTAAA	-0.178
AACTTCCC	0.0636
GCGACCGA	0.148
CGAGCAGA	-0.182
CGAGAAAG	-0.134
AAGTTTGC	-0.0502
ATCATGGA	-0.0809
GCCGCGGC	-0.0383
AACGCACA	0.0384
CATAGCGG	-0.167
ATTTCCTC	0.0443
AACTCGTA	0.255
CGCTCTGC	-0.193
CGGGCCCC	-0.255
GGTGACAC	0.238
AGGCGCCA	-0.0495
CCGAGGGA	-0.252
CCAGACCC	-0.235

Sequence	PBM E-score
ACCAGATG	-0.00648
CAGATTCG	-0.101
TCGCACGA	0.317
GGGACTCA	-0.301
TCAAGACA	0.0152
AGTTTGGC	0.035
AATAAAAG	-0.012
CCAAGTCA	-0.0923
CCTGCTCC	-0.00159
AATCATGA	0.274
AAAAACTT	-0.051
CAAACAGG	0.107
CAGCGGGC	-0.13
CTCGAAAC	0.163
AATACAAG	0.00093
CAGCTCCA	-0.238
CCGCCCCC	-0.448
AAGCAAAA	0.0973
CACACGGG	0.0515
GCTTCATA	-0.105
